# Assay results reported in patent US20180243435A1 (AbbVie / Abbott, published 2018).
# By UniProt entry, the sequences of proteins in these tests, tags left out. Where a name states a change or a piece, a line headed by the entry shows the natural chain unless it says otherwise.
# UniProt Q9NYJ7: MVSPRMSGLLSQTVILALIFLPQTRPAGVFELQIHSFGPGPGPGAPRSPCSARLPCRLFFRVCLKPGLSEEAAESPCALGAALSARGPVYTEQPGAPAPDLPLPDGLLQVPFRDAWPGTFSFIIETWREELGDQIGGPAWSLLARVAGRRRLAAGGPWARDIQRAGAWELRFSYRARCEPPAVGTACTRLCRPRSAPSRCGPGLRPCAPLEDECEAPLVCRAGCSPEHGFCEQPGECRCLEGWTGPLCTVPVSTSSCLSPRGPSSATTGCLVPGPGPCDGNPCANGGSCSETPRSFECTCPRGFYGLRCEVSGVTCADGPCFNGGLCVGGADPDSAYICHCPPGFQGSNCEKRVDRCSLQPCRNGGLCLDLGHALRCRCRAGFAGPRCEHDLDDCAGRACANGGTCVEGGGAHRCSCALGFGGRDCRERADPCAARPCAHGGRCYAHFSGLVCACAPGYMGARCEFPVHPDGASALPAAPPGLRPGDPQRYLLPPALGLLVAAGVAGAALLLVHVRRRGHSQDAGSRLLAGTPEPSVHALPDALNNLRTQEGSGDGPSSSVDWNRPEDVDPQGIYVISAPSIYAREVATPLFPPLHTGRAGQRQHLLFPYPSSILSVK
# Residue numbers refer to the chain shown, from its start. No constants are given. Whether binding was seen depends on the method and setting. Some entries that bind do so weakly or less than the wild type.
# B1: SC16.20 (antibody, V domains shown)
# VH: QVQLQQSGTELVRPGTSVRVSCKASGYAFGNHLIEWVKQRPGQGLEWIGVINPGTGGTHYNEKFKDKARLTADKSSNTAYMHLNSLTSDDSAVYFCARSPYDYHEGAMDYWGQGTSVTVSS
# VL: EIQMTQSPSSMSASLGDRITITCQATQDIVKNLNWYQQKPGKPPSFLIYYATELAEGVPSRFSGSGSGSDYSLTIRNLESEDFADHYCLQFYEFPFTFGAGTKLELK
# B2: SC16.23 (antibody, V domains shown)
# VH: QVTLKESGPGILQPSQTLSLTCSFSGFSLSTSNTGIGWIRQPSGTGLEWLAHIWWNDDKYYNPSLKSRLTISKETSNNQVFLKITNVDTADTASYFCVQIGRDYSNYAWYFDVWGAGTTVTVSS
# VL: QIVLTQSPAIMSASPGEKVTLTCSASSSVSSRYLYWYQQKPGSSPKLWIYSTSNLASGVPARFSGSGSGTSYSLIISSMEAEDAASYFCHQWSNYPLTFGAGTKLELK
# notes: murine hybridoma mAb
# B3: SC16.21 (antibody, V domains shown)
# VH: QVQLQQSGPELVKPGASVKISCKASGYAFSSSWMNWVKQRPGKGLEWIGRIYPGDGDTNYNGKFKGKATLTADKSSSTAYMQLSSLTSEDSAVYFCAMGIYNYDGSRYYSMDYWGQGTSVTVSS
# VL: DIVMTQSPSSLAMSVGQKVTMSCKSSQSLLNSSNQKNYLAWYQQEPGQSPKLLVSFASTRESGVPDRFTGSGSGTDFTLTISGVQAEDLAVYYCQQHYSIPLTFGAGTKLELK
# B4: SC16.38 (antibody, V domains shown)
# VH: EVQLQQSGAELVKPGASVKLSCTVSGFNIKDTYIHWVKQRPEQGLEWIGRIDPANGNTKYDPKFQGKATITADTSSNTAYLQLSSLTSEDTAVYYCARPTGYFEYWGQGTTLTVSS
# VL: QIVLTQSPAIMSASPGEKVTMTCSASSSINYMHWYQQKPGTSPKRWIYDTSKLASGVPARFSGSGSGTSYSLTISSMEAEDAATYYCHQRSTWTFGGGTKLEIK
# B5: SC16.25 (antibody, V domains shown)
# VH: QVTLKESGPGILQPSQTLSLTCSFSGFSLSTSGMGVGWIRQPSGEGLEWLTDIWWDDNKYYNPSLKSRLTISKDTSSNQVFLNITSVDTADTATYYCARRVNYYYDPYYAMDYWGQGTSVTVSS
# VL: QIVLTQSPAIMSASPGEKVTMTCSASSSVSYMHWYQQKSGTSPKRWIYDSSKLASGVPARFSGSGSGTSYSLTISSMEAEDAATYYCQQWSSNPLTFGAGTKLELK
# B6: SC16.34 (antibody, V domains shown)
# VH: QIQLVQSGPELKRPGETVKISCKASGYTFTNYGMNWVKQAPGKGLKWMGWINTYTGDPTYADDFKGRFAFSLETSASTAYLQINNLKNEDTATYFCARIGGNSPSDYWGQGTSLTVSS
# VL: SIVMTQTPKFLLVSAGDRVTITCKASQSVSNDVAWYQQKPGQSPKLLIYYASNRYSGVPDRFTGSGYGTDFTFTISTVQAEDLAVYFCQQDYSSPWTFGGGTKLEIK
# notes: murine hybridoma mAb
# B7: SC16.3 (antibody, V domains shown)
# VH: QVTLKESGPGILQPSQTLSLTCSFSGFSLSTSGMGVGWIRQPSGKGLEWLAHIWWDDVKRYNPALKSRLTISKDTSSSQVFLKIASVDTADTATYYCARIADYGGDYYAMDYWGQGTSVTVSS
# VL: QIVLTQSPAIMSVSLGERVTMTCTASSSVSSSYLHWYQQKPGSSPKLWIYSTSNLASGVPARFSGSGSGTSYFFTISSMEAEDAATYYCHQYHRSPFTFGAGTKLKIR
# B8: SC16.30 (antibody, V domains shown)
# VH: QVTLKESGPGILQPSQTLSLTCSFSGFSLSTSGMGVGWIRQPSGKGLEWLAHIWWDDVKRYKPALKSRLTVSKDTSSNQVFLKIATVDAADTGTYYCARIVDGHPPFAYWGQGTLVTVSA
# VL: B7 VL with A9T, V13A, S30T, F73S, F74L, Y92F, A101S, K106E, R108K
# B9: SC16.19 (antibody, V domains shown)
# VH: EVQLQQSGAELVRPGASVKLSCTASGFNIKDSLLHWVKQRPEKGLEWIGWIDPEDGETKYAPNFQDKATITTDSSSNTAYLQLISLTSVDTAIYYCAYGNYVRHFDYWGQGTTLTVSS
# VL: DIQMTQSPSSLSASLGGKVTFTCKASQDIHKYVAWYQHKPGKGPRLLIHYTSTLQPGISSRFSGSGSGRDYSFSISNLEPEDIATYYCLQYNNLYTFGGGTKLEIK
# B10: SC16.31 (antibody, V domains shown)
# VH: EVQLQQSGPELVKPGASVKISCKASGYSFSRFYMHWVKQSPENSLEWIGEINPSTGGTSYNQKFKGKATLTVDKSSSTAYMQLKSLTSEESAVYYCTRGYGSNWYFDVWGAGTTVTVST
# VL: DIVLTQSPLSLPVNIGDQASISCKSTKSLLNSDGFTYLDWYLQRPGQSPQFLIYLVSNRFSGVPDRFSGSGSGTDFTLKISRVEAEDLGVYYCFQSNYLPLTFGAGTKLELR
# B11: SC16.29 (antibody, V domains shown)
# VH: QVQLQQSGAELARPGASVKLSCKASGYTFTDQYINWVKQRTGQGLEWIGEIYPGRGNTYYNEKFKGKATLTADKSSSTAYMQLSSLTSEDSAVYFCAREDGGYDDAWFAYWGQGTLVTVSA
# VL: QIVLTQSPAIMSASPGEKVTITCSASSSVSYMHWFQQKPGTSPKLWIYTTSNLASGVPARFSGSGSGTSYSLTVSRMEAEDAATYYCQQRSLYPYTFGGGTKVEIK
# B12: SC16.22 (antibody, V domains shown)
# VH: QVQLQQPGAELVKPGASVKLSCKASGYTFTTYWMHWVKQRPGQGLEWIGEIDPSDSYTYYNQKFKGKATLTVDKSSSTAYMQLSSLTSEDSAVYYCARGDYGNPYAMDYWGQGSSVTVSS
# VL: DIQMTQTTSSLSASLGDRVTISCRASQDIKNYLNWYQQKPDGTVKPLIYYTSRVHSGVPSRFSGSGSGTDYSLTISNLEQEDIATYFCQQGYTLPFTFGSGTKLEIK
# B13: SC16.18 (antibody, V domains shown)
# VH: EVKLEESGGGLVQPGESMKLSCAASGFTFSDAWMDWVRQSPEKGLEWVAEIRNKANNHATYYAESVKGKFTISRDDSKSRVYLQMNNLRAADTGIYYCTAYSNFAYWGQGTLVTVST
# VL: DIQMTQTTSSLSASLGDRVTISCRASQNIINYLNWYQQKPDGTVKLLIYYTSRLHSGVPSRFSGSGSGTDYSLTISNLEPEDIATYYCQQYSERPYTFGGGTKLEIK
# B14: SC16.35 (antibody, V domains shown)
# VH: DVQLQESGPGLVKPSQSLSLTCTVTGYSITSDYAWNWIRQFPGNKLEWMGYISYSGSTSYNPSLKSRISITRDTSKNQFFLQLNSVTTEDTATYYCARFYYGSSYAMDYWGQGTSVTVSS
# VL: B12 VL with K30S, P46L, V54L, Y92N, F96Y, S100G
# B15: SC16.4 (antibody, V domains shown)
# VH: QIQLVQSGPELKKPGETVKISCKASGYTFTDYSMHWVKQAPGKGLKWMGWINTETGEPGYADDFKGRFAFSLETSASTAYLQINNLKNEDTATYFCARYDGYAMDYWGQGTSVTVSS
# VL: B12 VL with K30S, P46L, V54L, Q80L, Y92D, T93M, F96W, S100G
# B16: SC16.41 (antibody, V domains shown)
# VH: B13 VH with P14F, E16G, A63P, K69R, A91E, A100G, N103S, T117A
# VL: B13 VL with N28D, I29V, G68R
# Target: human DLL3 (human) (UniProt Q9NYJ7)
# Test: hybridoma screening: ELISA on immobilized DLL3 or flow cytometry on HEK-293T cells overexpressing hDLL3
row,binding,Binder
1,binds,B1
2,binds,B2
3,binds,B3
4,binds,B4
5,binds,B5
6,binds,B6
7,binds,B7
8,binds,B8
9,binds,B9
10,binds,B10
11,binds,B11
12,binds,B12
13,binds,B13
14,binds,B14
15,binds,B15
16,binds,B16
